Reference: article PMC3794005
These are yes or no findings as the source states them, for the method shown. Binding seen in cells or lysates may run through a third protein. Some entries that bind do so weakly or less than the wild type. Each block holds one molecule with its values, some of them ahead of it.

By UniProt entry, the sequences of proteins in these tests, tags left out.
UniProt Q9UDY8: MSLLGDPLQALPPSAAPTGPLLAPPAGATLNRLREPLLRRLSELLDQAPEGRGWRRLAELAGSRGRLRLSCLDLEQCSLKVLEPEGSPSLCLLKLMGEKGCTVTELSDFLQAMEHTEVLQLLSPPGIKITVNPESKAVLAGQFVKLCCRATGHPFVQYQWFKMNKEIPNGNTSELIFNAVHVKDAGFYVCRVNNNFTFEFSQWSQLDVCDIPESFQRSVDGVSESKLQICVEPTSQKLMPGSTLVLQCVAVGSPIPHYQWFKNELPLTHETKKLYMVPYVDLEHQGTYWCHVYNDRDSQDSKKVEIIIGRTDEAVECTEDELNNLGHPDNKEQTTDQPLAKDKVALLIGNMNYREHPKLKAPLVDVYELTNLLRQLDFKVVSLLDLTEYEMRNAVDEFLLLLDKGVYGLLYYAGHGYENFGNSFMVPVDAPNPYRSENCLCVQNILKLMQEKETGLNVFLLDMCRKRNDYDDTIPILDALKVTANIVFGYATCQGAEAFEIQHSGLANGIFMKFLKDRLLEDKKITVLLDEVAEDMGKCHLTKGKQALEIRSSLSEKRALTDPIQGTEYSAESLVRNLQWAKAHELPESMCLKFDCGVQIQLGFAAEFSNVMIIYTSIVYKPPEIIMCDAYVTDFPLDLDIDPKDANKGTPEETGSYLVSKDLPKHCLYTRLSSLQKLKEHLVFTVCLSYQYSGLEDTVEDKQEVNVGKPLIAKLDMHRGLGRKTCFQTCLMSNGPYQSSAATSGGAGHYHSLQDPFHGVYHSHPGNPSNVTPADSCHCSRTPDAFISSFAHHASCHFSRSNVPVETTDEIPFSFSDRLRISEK

Key:
[1] = biological target: T1, Bcl10 (human (endogenous in NCM460)) (UniProt O95999); experiment: co-IP; endogenous proteins in lysates of NCM460 cells (control, PAF, LA-CS, PAF + LA-CS); IP with anti-Bcl10 antibody, blot with anti-MALT1; lysis buffer 20 mM Tris pH 7.5, 150 mM NaCl, 1% Triton X-100, 1 mM EDTA; 4°C, 16 h
T1 sequence: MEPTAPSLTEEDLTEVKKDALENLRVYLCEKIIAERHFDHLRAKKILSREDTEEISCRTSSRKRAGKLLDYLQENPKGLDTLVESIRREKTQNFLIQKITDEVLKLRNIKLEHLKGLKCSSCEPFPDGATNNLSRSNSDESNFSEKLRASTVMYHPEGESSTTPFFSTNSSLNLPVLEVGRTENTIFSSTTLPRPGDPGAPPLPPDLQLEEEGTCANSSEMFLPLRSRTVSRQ

[2] = biological target: T2, CARMA3 (human (endogenous in NCM460)) (UniProt Q9BWT7); experiment: co-IP; data not shown; endogenous proteins in lysates of NCM460 cells (PAF with or without LA-CS); IP with anti-CARMA3 antibody, blot with anti-Bcl10 (methods); lysis buffer 20 mM Tris pH 7.5, 150 mM NaCl, 1% Triton X-100, 1 mM EDTA; 4°C, 16 h
T2 sequence: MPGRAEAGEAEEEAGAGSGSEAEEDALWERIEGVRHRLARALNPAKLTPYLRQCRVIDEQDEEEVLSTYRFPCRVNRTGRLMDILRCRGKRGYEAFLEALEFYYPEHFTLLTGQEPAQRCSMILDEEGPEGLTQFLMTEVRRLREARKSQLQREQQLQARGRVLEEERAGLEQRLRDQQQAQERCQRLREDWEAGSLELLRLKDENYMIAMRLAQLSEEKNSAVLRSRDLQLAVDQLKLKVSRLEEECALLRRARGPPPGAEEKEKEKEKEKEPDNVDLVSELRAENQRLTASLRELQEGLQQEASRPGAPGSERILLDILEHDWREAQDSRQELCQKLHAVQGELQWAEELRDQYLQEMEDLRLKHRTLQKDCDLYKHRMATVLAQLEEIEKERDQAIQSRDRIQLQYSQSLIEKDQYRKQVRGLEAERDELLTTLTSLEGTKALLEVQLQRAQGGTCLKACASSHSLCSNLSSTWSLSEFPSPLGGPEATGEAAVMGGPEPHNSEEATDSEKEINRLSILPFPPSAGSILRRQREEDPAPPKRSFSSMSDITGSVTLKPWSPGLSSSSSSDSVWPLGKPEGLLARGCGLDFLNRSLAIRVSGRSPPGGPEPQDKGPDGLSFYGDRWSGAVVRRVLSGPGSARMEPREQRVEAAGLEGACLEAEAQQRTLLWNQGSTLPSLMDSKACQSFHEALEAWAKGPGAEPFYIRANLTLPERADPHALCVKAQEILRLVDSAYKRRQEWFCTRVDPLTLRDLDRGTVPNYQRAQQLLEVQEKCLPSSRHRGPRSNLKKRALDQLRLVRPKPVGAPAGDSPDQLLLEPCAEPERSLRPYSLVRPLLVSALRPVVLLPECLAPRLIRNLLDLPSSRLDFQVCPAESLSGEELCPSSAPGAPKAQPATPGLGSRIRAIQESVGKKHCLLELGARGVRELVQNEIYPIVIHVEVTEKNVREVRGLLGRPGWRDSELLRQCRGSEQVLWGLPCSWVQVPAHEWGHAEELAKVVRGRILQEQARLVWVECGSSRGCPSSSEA

binding [1]: binds
Molecule: MALT1 (from UniProt Q9UDY8 1-824)

binding [2]: binds
B1: Bcl10 (protein, UniProt O95999 1-233)
chain: T1 sequence
